PubChem BioAssay AID504791, Drosophila RNAi Screening Center | 2011
The deposit covers about 23,000 reagents; shown is an unselected part of those with a known target gene and a result. Over the whole deposit, 199 (0.86%) were called active. 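Plate-scaled ratios behind the calls are not deposited; printed light signals are raw; many rows marked increased or decreased are still called inactive.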 A plus sign joins genes that one reagent is predicted to hit.

Test: 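Factors in Argonaute-based small RNA production and activity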 (primary screen)
System: Drosophila S2-derived reporter cells
Reagent: long dsRNA against Drosophila genes, about 150-250 ng dsRNA per well (siRNA assay); about 80-120 ng (miRNA assay)
Timing: about 5 days (siRNA assay); about 4 days (miRNA assay)
Conditions: copper sulfate induction of reporters: 25 µM (siRNA assay); 200 mM stated (miRNA assay), 1-2 days before reading
Measurement: 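Per-well ratio of Renilla over firefly light, expressed relative to that plate's average ratio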
Scale: siRNA reporter hit score: higher = 3 marks a strong hit with raised ratio; -3 a strong hit with lowered ratio
Call rule: 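First-pass picks had plate-scaled ratios over 1.5 for the siRNA assay, over 1.6 for the miRNA assay, or under 0.6; two distinct dsRNAs had to score alike on retest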

Gene | dsRNA | siRNA reporter hit score | stable siRNA reporter change | miRNA reporter change | stable assay Renilla, run 1 (luminescence) | stable assay firefly, run 1 (luminescence) | outcome
wus (wurst) | DRSC20278 | – | – | – | 6867 | 4.45e5 | inactive
Fur1 (Furin 1) | DRSC13707 | – | – | – | 5487 | 4.32e5 | inactive
Fur1 (Furin 1) | DRSC16676 | – | reporter ratio lowered past the hit cutoff | – | 7495 | 6.77e5 | inactive
CG17650 | DRSC00510 | – | – | – | 8815 | 6.62e5 | inactive
BomBc3 (Bomanin Bicipital 3) | DRSC15873 | – | – | – | 7688 | 4.91e5 | inactive
H15 | DRSC03339 | – | – | – | 7586 | 4.81e5 | inactive
H15 | DRSC22199 | – | reporter ratio raised past the hit cutoff | – | 6443 | 1.72e5 | inactive
Naa30A (N(alpha)-acetyltransferase 30 A) | DRSC18583 | – | – | – | 8650 | 3.68e5 | inactive
Naa30A (N(alpha)-acetyltransferase 30 A) | DRSC23214 | – | – | – | 1268 | 63240 | inactive
CG33007 (retired record) | DRSC21845 | – | – | – | 9168 | 8.44e5 | inactive
CG8043 | DRSC16368 | – | – | – | 7270 | 4.98e5 | inactive
PDCD-5 (Programmed Cell Death 5) | DRSC09955 | – | – | – | 8514 | 4.54e5 | inactive
RfC4 (Replication factor C subunit 4) | DRSC08691 | – | – | – | 7775 | 3.09e5 | inactive
Rpn10 (Regulatory particle non-ATPase 10) | DRSC11876 | – | – | – | 5623 | 2.56e5 | inactive
CG17049 (retired record) | DRSC06650 | – | – | – | 6183 | 3.35e5 | inactive
Spt20 | DRSC10280 | – | reporter ratio raised past the hit cutoff | reporter ratio lowered past the hit cutoff | 4523 | 1.78e5 | inactive
Spt20 | DRSC22993 | – | – | – | 5023 | 4.02e5 | inactive
CG18480 | DRSC01957 | – | – | – | 7707 | 1.79e6 | inactive
RtGEF (Rho-type guanine nucleotide exchange factor) | DRSC03604 | – | – | – | 7204 | 5.53e5 | inactive
RtGEF (Rho-type guanine nucleotide exchange factor) | DRSC22207 | – | – | – | 9153 | 5.14e5 | inactive
CG11458 | DRSC11666 | – | – | – | 7394 | 3.64e5 | inactive
CG9993 | DRSC04599 | – | – | – | 8614 | 5.45e5 | inactive
Nepl14 (Neprilysin-like 14) | DRSC15631 | – | – | – | 7783 | 3.55e5 | inactive
CheB98a (Chemosensory protein A 98a) | DRSC14882 | – | – | – | 6806 | 4.00e5 | inactive
bbc (bb in a boxcar) | DRSC06958 | – | – | – | 4815 | 4.80e5 | inactive
bbc (bb in a boxcar) | DRSC22309 | – | – | – | 9894 | 4.99e5 | inactive
CG11155 | DRSC17184 | – | – | – | 5115 | 3.11e5 | inactive
CG11155 | DRSC17205 | – | – | – | 7170 | 3.09e5 | inactive
Gr98a (Gustatory receptor 98a) | DRSC14719 | – | – | – | 4220 | 4.68e5 | inactive
CG34034 | DRSC13506 | – | – | – | 5298 | 4.66e5 | inactive
CG4854 | DRSC15663 | – | – | – | 7492 | 4.46e5 | inactive
Cul1 (Cullin 1) | DRSC07645 | – | – | – | 8547 | 4.68e5 | inactive
CG3566 | DRSC18311 | – | – | – | 6936 | 4.19e5 | inactive
Gr10b (Gustatory receptor 10b) | DRSC19477 | – | – | – | 5398 | 6.02e5 | inactive
CG9609 | DRSC20199 | – | reporter ratio lowered past the hit cutoff | – | 7616 | 7.41e5 | inactive
ttm3 (tiny tim 3) | DRSC03736 | – | – | – | 7695 | 4.84e5 | inactive
Octbeta2R (Octopamine beta2 receptor) | DRSC15350 | – | – | – | 6690 | 3.91e5 | inactive
Octbeta2R (Octopamine beta2 receptor) | DRSC16165 | – | – | – | 6546 | 4.21e5 | inactive

In a second layout: results already given.
CG11155 [DRSC17184]
- stable assay Renilla, run 1 (luminescence): 5115
- stable assay firefly, run 1 (luminescence): 3.11e5
- outcome: inactive

CG11155 [DRSC17205]
- stable assay Renilla, run 1 (luminescence): 7170
- stable assay firefly, run 1 (luminescence): 3.09e5
- outcome: inactive

Gr98a (Gustatory receptor 98a) [DRSC14719]
- stable assay Renilla, run 1 (luminescence): 4220
- stable assay firefly, run 1 (luminescence): 4.68e5
- outcome: inactive

CG34034 [DRSC13506]
- stable assay Renilla, run 1 (luminescence): 5298
- stable assay firefly, run 1 (luminescence): 4.66e5
- outcome: inactive

CG4854 [DRSC15663]
- stable assay Renilla, run 1 (luminescence): 7492
- stable assay firefly, run 1 (luminescence): 4.46e5
- outcome: inactive

Cul1 (Cullin 1) [DRSC07645]
- stable assay Renilla, run 1 (luminescence): 8547
- stable assay firefly, run 1 (luminescence): 4.68e5
- outcome: inactive

CG3566 [DRSC18311]
- stable assay Renilla, run 1 (luminescence): 6936
- stable assay firefly, run 1 (luminescence): 4.19e5
- outcome: inactive

Gr10b (Gustatory receptor 10b) [DRSC19477]
- stable assay Renilla, run 1 (luminescence): 5398
- stable assay firefly, run 1 (luminescence): 6.02e5
- outcome: inactive

CG9609 [DRSC20199]
- stable siRNA reporter change: reporter ratio lowered past the hit cutoff
- stable assay Renilla, run 1 (luminescence): 7616
- stable assay firefly, run 1 (luminescence): 7.41e5
- outcome: inactive

Additional reagents follow.
Gene | dsRNA | siRNA reporter hit score | stable siRNA reporter change | miRNA reporter change | stable assay Renilla, run 1 (luminescence) | stable assay firefly, run 1 (luminescence) | outcome
CG32982 | DRSC01059 | – | – | – | 4624 | 3.17e5 | inactive
CG32982 | DRSC02677 | – | – | – | 8498 | 5.56e5 | inactive
CG32982 | DRSC03268 | – | – | – | 4580 | 4.01e5 | inactive
CG32982 | DRSC03269 | – | – | – | 6807 | 5.05e5 | inactive
CG32982 | DRSC21912 | – | – | – | 8493 | 4.31e5 | inactive
CG15719 | DRSC19685 | – | – | – | 5079 | 4.74e5 | inactive
Pcp (Pupal cuticle protein) | DRSC03395 | – | – | – | 6898 | 4.12e5 | inactive
CG34198 | DRSC05803 | – | – | – | 5480 | 3.46e5 | inactive
Crz (Corazonin) | DRSC16615 | – | – | – | 6802 | 4.88e5 | inactive
Nup93-2 (Nucleoporin 93kD-2) | DRSC16221 | 3 | – | – | 7639 | 3.52e5 | inactive
ana2 (anastral spindle 2) | DRSC05952 | – | – | – | 8230 | 3.79e5 | inactive
TwdlL (TweedleL) | DRSC16042 | – | reporter ratio raised past the hit cutoff | – | 31525 | 5.28e5 | inactive
Prx6c (Peroxiredoxin 6c) | DRSC06080 | – | – | – | 5624 | 3.79e5 | inactive
nAChRalpha4 (nicotinic Acetylcholine Receptor alpha4) | DRSC11925 | – | – | – | 5803 | 5.03e5 | inactive
CG9109 | DRSC03139 | – | – | – | 16271 | 3.93e5 | inactive
Tengl4 (Testis EndoG-Like 4) | DRSC15620 | – | – | – | 7082 | 3.80e5 | inactive
Cyp9f3 (Cytochrome P450 9f3) | DRSC16636 | – | – | – | 7704 | 5.42e5 | inactive
CG12375 | DRSC02163 | – | – | – | 13448 | 2.02e5 | inactive
Usp12-46 (Ubiquitin-specific protease 12/46) | DRSC16175 | – | – | – | 7162 | 3.64e5 | inactive
CG17168 | DRSC20904 | – | – | – | 6968 | 4.38e5 | inactive
alpha-PheRS (Phenylalanyl-tRNA synthetase, alpha-subunit) | DRSC18224 | – | – | – | 8604 | 4.89e5 | inactive
Pli (Pellino) | DRSC16792 | – | – | – | 9321 | 3.98e5 | inactive
Pura (Puratrophin-1-like) | DRSC08891 | – | – | – | 4535 | 3.43e5 | inactive
Pura (Puratrophin-1-like) | DRSC10862 | – | – | – | 6103 | 3.73e5 | inactive
Pura (Puratrophin-1-like) | DRSC10864 | – | – | – | 5862 | 3.29e5 | inactive
Pura (Puratrophin-1-like) | DRSC10865 | – | – | – | 6199 | 3.59e5 | inactive
Pura (Puratrophin-1-like) | DRSC10866 | – | – | – | 5135 | 3.53e5 | inactive
Nha1 (Na[+]/H[+] hydrogen antiporter 1) | DRSC02109 | – | – | – | 11862 | 4.67e5 | inactive
CG31054 (retired record) + CG4849 | DRSC28625 | – | – | reporter ratio raised past the hit cutoff | – | – | inactive
CG5819 | DRSC04520 | – | – | – | 8522 | 5.58e5 | inactive
MtnC (Metallothionein C) | DRSC22879 | – | – | – | 4008 | 4.00e5 | inactive
pic (piccolo) | DRSC16639 | – | – | – | 7204 | 6.17e5 | inactive
Loxl2 (Lysyl oxidase-like 2) | DRSC04469 | – | – | – | 1.28e5 | 4.04e5 | inactive
CG7888 | DRSC10926 | – | – | – | 6923 | 4.65e5 | inactive
mRpL45 (mitochondrial ribosomal protein L45) | DRSC16146 | – | – | – | 5838 | 3.81e5 | inactive
CG18599 | DRSC15357 | – | – | – | 3576 | 3.40e5 | inactive
CG18599 | DRSC22585 | – | – | reporter ratio raised past the hit cutoff | 3556 | 2.56e5 | inactive
CG18599 | DRSC23121 | – | – | – | 3815 | 2.80e5 | inactive
Ostgamma (Oligosaccharide transferase gamma subunit) | DRSC03074 | – | – | – | 1.13e5 | 4.23e5 | inactive
CG14710 | DRSC14933 | – | – | – | 7575 | 3.87e5 | inactive
CG40551 (retired record) | DRSC21229 | – | reporter ratio raised past the hit cutoff | – | 5470 | 2.74e5 | inactive
CG32213 + CG12519 + 825-Oak + 1 more | DRSC09615 | – | – | – | 6043 | 4.22e5 | inactive
sug (sugarbabe) | DRSC06855 | – | – | – | 8500 | 3.58e5 | inactive
Ass + CG31286 | DRSC12493 | – | – | – | 6866 | 3.75e5 | inactive
CG13272 | DRSC02249 | – | – | – | 7398 | 3.52e5 | inactive
CG13272 | DRSC22910 | – | – | – | 2295 | 2.54e5 | inactive
